# No constants are given. Whether binding was seen depends on the method and setting.
# B1: equine recombinant SCGB 1A1 (secretoglobin family 1A member 1) (natural protein, horse (E. caballus), UniProt Q8MKG2 22-91, looked up)
# chain: EICQSFADIIQGLFLGTPASFEAAVEPFKPDADMKAATTQLKTLVDFLPKNTKDSILKLMDKIAKSPLCA
# notes: SCGB 1A1 of the horse (E. caballus), mature protein without the signal peptide, cDNA from equine lung, 100% identical to NCBI JQ906260.1; Cloned in pMAL-c5X, said to add no vector-derived residues after Factor Xa cleavage; Disulfide-dependent homodimer; also called club (Clara) cell secretory protein; CCSP; source: E. coli BL21 (NEB Express), purified (amylose column, Factor Xa, FPLC SuperDex …)
# Target: equine recombinant SCGB 1A1 (secretoglobin family 1A member 1) (horse (E. caballus)) (UniProt Q8MKG2)
# Assay: reducing SDS-PAGE; purified recombinant protein run on reducing and denaturing SDS-PAGE; both purified
binder,measurement,value
B1,binding,no binding (condition: reducing and denaturing conditions)

# — article PMC4002474, “Secretoglobin 1A1 and 1A1A Differentially Regulate Neutrophil Reactive Oxygen Species Production, Phagocytosis and Extracellular Trap Formation” (PLoS ONE, 2014)
